Test results reported in PMC13534945.
At least one result comes from cells or an extract, where the contact may be indirect. For some of these results: Negatives hold for the conditions tested. For some of these results: Construct, isoform or probe ends are uncertain for at least one entry. For some of these results: At least one verdict rests on a figure or table, not on a statement of the authors. For some of these results: Whether high values mean tight binding is not given here for every scale.

Columns and labels:
[1] = molecular target: GATA1 (endogenous, K562) (Homo sapiens) (UniProt P15976); experiment: native holdup single-point, western blot; details: native holdup on streptavidin resin with total cell extract (1 or 0.1 mg/ml) in lysis buffer with added Mg2+ and K+ and lowered ionic strength, protein in an extract, label: 5' biotin on forward strand
[2] = molecular target: HA-GATA1 V205M (Homo sapiens) (UniProt P15976); experiment: native holdup titration, western blot; details: no major consistent perturbation; native holdup on streptavidin resin with total cell extract (1 or 0.1 mg/ml) in lysis buffer with added Mg2+ and K+ and lowered ionic strength; protein in a lysate after overexpression; residues 1-413; protein details: HA (N-terminal); label: 5' biotin on forward strand
[3] = molecular target: HA-GATA1 WT (Homo sapiens) (UniProt P15976); experiment: native holdup titration, western blot; details: affinity nearly identical to endogenous GATA1; native holdup on streptavidin resin with total cell extract (1 or 0.1 mg/ml) in lysis buffer with added Mg2+ and K+ and lowered ionic strength; protein in a lysate after overexpression; residues 1-413; protein details: HA (N-terminal); label: 5' biotin on forward strand
[4] = molecular target: HA-GATA1 R307C (Homo sapiens) (UniProt P15976); experiment: native holdup titration, western blot; details: native holdup on streptavidin resin with total cell extract (1 or 0.1 mg/ml) in lysis buffer with added Mg2+ and K+ and lowered ionic strength; protein in a lysate after overexpression; residues 1-413; protein details: HA (N-terminal); label: 5' biotin on forward strand
[5] = molecular target: HA-GATA1 C282R (Homo sapiens) (UniProt P15976); experiment: native holdup titration, western blot; details: native holdup on streptavidin resin with total cell extract (1 or 0.1 mg/ml) in lysis buffer with added Mg2+ and K+ and lowered ionic strength; protein in a lysate after overexpression; residues 1-413; protein details: HA (N-terminal); label: 5' biotin on forward strand
[6] = molecular target: HA-GATA1 D218Y (Homo sapiens) (UniProt P15976); experiment: native holdup titration, western blot; details: no major consistent perturbation; native holdup on streptavidin resin with total cell extract (1 or 0.1 mg/ml) in lysis buffer with added Mg2+ and K+ and lowered ionic strength; protein in a lysate after overexpression; residues 1-413; protein details: HA (N-terminal); label: 5' biotin on forward strand
[7] = molecular target: HA-GATA1s (short) (Homo sapiens) (UniProt P15976); experiment: native holdup titration, western blot; details: native holdup on streptavidin resin with total cell extract (1 or 0.1 mg/ml) in lysis buffer with added Mg2+ and K+ and lowered ionic strength; protein in a lysate after overexpression; protein details: HA; label: 5' biotin on forward strand
[8] = molecular target: GATA1 (endogenous, K562) (Homo sapiens) (UniProt P15976); experiment: native holdup titration, western blot; details: native holdup on streptavidin resin with total cell extract (1 or 0.1 mg/ml) in lysis buffer with added Mg2+ and K+ and lowered ionic strength, protein in an extract, label: 5' biotin on forward strand
[9] = molecular target: HA-GATA1 R216W (Homo sapiens) (UniProt P15976); experiment: native holdup titration, western blot; details: no major consistent perturbation; native holdup on streptavidin resin with total cell extract (1 or 0.1 mg/ml) in lysis buffer with added Mg2+ and K+ and lowered ionic strength; protein in a lysate after overexpression; residues 1-413; protein details: HA (N-terminal); label: 5' biotin on forward strand
[10] = molecular target: HA-GATA1 C228R (Homo sapiens) (UniProt P15976); experiment: native holdup titration, western blot; details: native holdup on streptavidin resin with total cell extract (1 or 0.1 mg/ml) in lysis buffer with added Mg2+ and K+ and lowered ionic strength; protein in a lysate after overexpression; residues 1-413; protein details: HA (N-terminal); label: 5' biotin on forward strand
[11] = biotin control, minimal binding, not a significant partner

ATGCCATTGCTTCATGCACGTATAGCCACTG (double strand) [SCR2]
binding result [1, 11]: no binding

CCACTCTGTTCTAGAGAAGCCTTCGTGAACT (double strand) [SCR1]
binding result [1, 11]: no binding

GAATTGAGAGGTATCTTACCGCTCCCACTCC (double strand) [51_HAP]
binding result [2]: binds | binding result [3]: binds | binding signal (fold decreased affinity vs WT) [4]: 5.3 | binding result [5]: no binding | binding result [6]: binds | binding signal (fold increased affinity vs WT) [7]: 4 | Kd ([8]; 1 mg/ml extract): 130 nM | binding result [9]: binds | binding signal (fold decreased affinity vs WT) [10]: 15

GAATTGAGAGGTATCTTATCGCTCCCACTCC (double strand) [51_WT]
binding result [2]: binds | binding result [3]: binds | binding signal (fold decreased affinity vs WT) [4]: 2 | binding result [5]: no binding | binding result [6]: binds | binding signal (fold increased affinity vs WT) [7]: 1.6 | Kd ([8]; 1 mg/ml extract): 17 nM | binding result [9]: binds | binding signal (fold decreased affinity vs WT) [10]: 2 | binding result ([1]; biotin, SCR1 or SCR2 control): binds

GCGCTATCAGATAAGGCCTTG (double strand) [CTRLpalindrome]
Kd [8]: 140 nM

TCAGCCCTCCGTATCGTCACCTACAC (double strand) [4945_WT]
Kd ([8]; 0.1 mg/ml extract): 200 nM | Kd ([8]; 1 mg/ml extract): 100 nM

TCAGCCCTCCGTTTTGTCACCTACAC (double strand) [4945_HAP]
binding signal (fold weaker than 4945 WT) ([8]; 1 mg/ml extract, marginal interaction): 100
